Data reported in patent US20260078175A1 (Boehringer Ingelheim, published 2026).
Results are given in words; binding and its absence hold for the method and conditions named. Some entries that bind do so weakly or less than the wild type.

Target: T1, Rabbit Sema3A (rabbit, UniProt G1T285 21-770)
T1 construct: Construct not described
T1 sequence: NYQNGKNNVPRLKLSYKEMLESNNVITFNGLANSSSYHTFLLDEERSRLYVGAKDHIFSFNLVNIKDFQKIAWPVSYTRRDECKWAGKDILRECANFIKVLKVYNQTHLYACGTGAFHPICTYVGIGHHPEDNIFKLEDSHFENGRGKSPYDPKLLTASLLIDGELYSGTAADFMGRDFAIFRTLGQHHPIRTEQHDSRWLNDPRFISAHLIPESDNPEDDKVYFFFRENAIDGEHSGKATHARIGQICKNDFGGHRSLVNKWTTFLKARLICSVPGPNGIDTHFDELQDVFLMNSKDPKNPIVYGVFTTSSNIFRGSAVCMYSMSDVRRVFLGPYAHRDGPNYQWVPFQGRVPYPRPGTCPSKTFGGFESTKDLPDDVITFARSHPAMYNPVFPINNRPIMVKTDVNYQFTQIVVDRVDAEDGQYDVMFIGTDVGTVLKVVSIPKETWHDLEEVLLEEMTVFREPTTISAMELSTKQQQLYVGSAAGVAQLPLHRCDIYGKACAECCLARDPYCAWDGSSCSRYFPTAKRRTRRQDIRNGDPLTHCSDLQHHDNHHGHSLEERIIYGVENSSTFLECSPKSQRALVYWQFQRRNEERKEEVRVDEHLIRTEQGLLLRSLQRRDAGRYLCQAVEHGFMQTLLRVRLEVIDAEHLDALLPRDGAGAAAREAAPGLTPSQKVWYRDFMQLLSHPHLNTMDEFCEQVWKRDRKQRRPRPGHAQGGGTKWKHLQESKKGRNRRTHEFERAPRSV
Assay: SPR, comparison with Samsung scFv 1-3

B1: Antibody of the invention (clone I) (antibody, human IgG1, kappa, L234A L235A, V domains shown)
VH: EVQLVESGGGLVQPGGSLRLSCAASGFTFSSYYMSWVRQAPGKGLEWVSTIIKSGGYAYYPDSVKDRFTISRDNSKNTLYLQMSSLRAEDTAVYYCVRGGQGAMDYWGQGTTVTVSS
VL: EIVLTQSPATLSLSPGERATLSCRASQSIGDYLHWYQQKPGQAPRLLIKYASQSISGIPARFSGSGSGTDFTLTITSLEPEDFAVYYCQQGYSFPYTFGGGTKLEIKR
notes: also called clone 1; anti-Sema3A antibody of the invention
- binding: binds
